{"source": "PubChem BioAssay AID1259405 (NCATS, 2018)", "assay": "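Mouse-designed siRNAs used to find CHO productivity engineering targets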 (primary screen)", "cell system": "Chinese hamster CHO-K1 ovary cells with stable secreted eGFP expression", "reagent": "single siRNA against mouse genes, 0.8 pmol siRNA per well (2 µl of 400 nM stock)", "timing": "3 days", "measurement": "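Per-well intracellular GFP measured by laser scanning cytometry, plus viability from ATP luminescence, each relative to plate median of non-targeting control wells, in %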", "direction": "GFP, % of control: higher = more GFP per well, higher productivity; viability (ATP), % of control: higher = more viable cells (more ATP)", "hit rule": "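Called active when intracellular GFP, relative to negative control, is at or above 120%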", "note": "Here is one part, drawn at random, of about 50,000 deposited reagents. Over the whole deposit, about 4,000 (8%) got an active call. 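Mouse siRNA library applied to hamster cells; one well for each siRNA.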 Reagents against one gene are numbered here."}
{"gene knocked down": "Rasgrp3 (RAS, guanyl releasing protein 3)", "reagent": 1, "GFP, % of control": 93.3, "viability (ATP), % of control": 99, "outcome": "inactive"}
{"gene knocked down": "Rasgrp3 (RAS, guanyl releasing protein 3)", "reagent": 2, "GFP, % of control": 301, "viability (ATP), % of control": 83.9, "outcome": "active"}
{"gene knocked down": "Rasgrp3 (RAS, guanyl releasing protein 3)", "reagent": 3, "GFP, % of control": 70.3, "viability (ATP), % of control": 80.2, "outcome": "inactive"}
{"gene knocked down": "Exoc3 (exocyst complex component 3)", "reagent": 1, "GFP, % of control": 86.1, "viability (ATP), % of control": 66, "outcome": "inactive"}
{"gene knocked down": "Exoc3 (exocyst complex component 3)", "reagent": 2, "GFP, % of control": 58, "viability (ATP), % of control": 61.7, "outcome": "inactive"}
{"gene knocked down": "Exoc3 (exocyst complex component 3)", "reagent": 3, "GFP, % of control": 77.8, "viability (ATP), % of control": 76.5, "outcome": "inactive"}
{"gene knocked down": "Alb (albumin)", "reagent": 1, "GFP, % of control": 111, "viability (ATP), % of control": 86.2, "outcome": "inactive"}
{"gene knocked down": "Alb (albumin)", "reagent": 2, "GFP, % of control": 130, "viability (ATP), % of control": 77.8, "outcome": "active"}
{"gene knocked down": "Alb (albumin)", "reagent": 3, "GFP, % of control": 49.4, "viability (ATP), % of control": 48, "outcome": "inactive"}
{"gene knocked down": "Tmtc4 (transmembrane and tetratricopeptide repeat containing 4)", "reagent": 1, "GFP, % of control": 90.2, "viability (ATP), % of control": 68.1, "outcome": "inactive"}
{"gene knocked down": "Tmtc4 (transmembrane and tetratricopeptide repeat containing 4)", "reagent": 2, "GFP, % of control": 57.2, "viability (ATP), % of control": 90.2, "outcome": "inactive"}
{"gene knocked down": "Tmtc4 (transmembrane and tetratricopeptide repeat containing 4)", "reagent": 3, "GFP, % of control": 62.5, "viability (ATP), % of control": 69.2, "outcome": "inactive"}
{"gene knocked down": "Cfap299 (cilia and flagella associated protein 299)", "reagent": 1, "GFP, % of control": 60.1, "viability (ATP), % of control": 73.8, "outcome": "inactive"}
{"gene knocked down": "Cfap299 (cilia and flagella associated protein 299)", "reagent": 2, "GFP, % of control": 72.1, "viability (ATP), % of control": 58.9, "outcome": "inactive"}
{"gene knocked down": "Cfap299 (cilia and flagella associated protein 299)", "reagent": 3, "GFP, % of control": 62.7, "viability (ATP), % of control": 82.6, "outcome": "inactive"}
{"gene knocked down": "Spmip9 (sperm microtubule inner protein 9)", "reagent": 1, "GFP, % of control": 83.9, "viability (ATP), % of control": 98.9, "outcome": "inactive"}
{"gene knocked down": "Spmip9 (sperm microtubule inner protein 9)", "reagent": 2, "GFP, % of control": 46.2, "viability (ATP), % of control": 67.4, "outcome": "inactive"}
{"gene knocked down": "Spmip9 (sperm microtubule inner protein 9)", "reagent": 3, "GFP, % of control": 104, "viability (ATP), % of control": 75.1, "outcome": "inactive"}
{"gene knocked down": "Scarf2 (scavenger receptor class F, member 2)", "reagent": 1, "GFP, % of control": 59.8, "viability (ATP), % of control": 88.3, "outcome": "inactive"}
{"gene knocked down": "Scarf2 (scavenger receptor class F, member 2)", "reagent": 2, "GFP, % of control": 44.7, "viability (ATP), % of control": 64.2, "outcome": "inactive"}
{"gene knocked down": "Scarf2 (scavenger receptor class F, member 2)", "reagent": 3, "GFP, % of control": 50.7, "viability (ATP), % of control": 67.1, "outcome": "inactive"}
{"gene knocked down": "Rab43 (RAB43, member RAS oncogene family)", "reagent": 1, "GFP, % of control": 50.5, "viability (ATP), % of control": 54.5, "outcome": "inactive"}
{"gene knocked down": "Rab43 (RAB43, member RAS oncogene family)", "reagent": 2, "GFP, % of control": 40.4, "viability (ATP), % of control": 48.1, "outcome": "inactive"}
{"gene knocked down": "Rab43 (RAB43, member RAS oncogene family)", "reagent": 3, "GFP, % of control": 66.4, "viability (ATP), % of control": 66.1, "outcome": "inactive"}
{"gene knocked down": "Cers2 (ceramide synthase 2)", "reagent": 1, "GFP, % of control": 60.4, "viability (ATP), % of control": 64.2, "outcome": "inactive"}
{"gene knocked down": "Cers2 (ceramide synthase 2)", "reagent": 2, "GFP, % of control": 58.2, "viability (ATP), % of control": 56.5, "outcome": "inactive"}
{"gene knocked down": "Cers2 (ceramide synthase 2)", "reagent": 3, "GFP, % of control": 24.9, "viability (ATP), % of control": 19.1, "outcome": "inactive"}
